We go through one molecule from patent US20100330617A1 (Sanofi, published 2010).

This assay addresses myc-tagged murine LIMP-2 (mouse). Put plainly: co-immunoprecipitation from COS-7 cells co-transfected with LIMP-2-myc and mouse βGC, immunoblot.

These are yes or no findings as the source states them, for the method shown. Binding seen in cells or lysates may run through a third protein. Binding calls can cover weak binding; strength is not graded here. Where a sequence is shown, tags or fusion partners need not be part of it.

B1: murine β-glucocerebrosidase (enzyme, mouse, UniProt P17439 20-515, looked up)
chain: AQPCIPKSFGYSSVVCVCNASYCDSLDPVTLPALGTFSRYESTRRGRRMELSVGAIQANRTGTGLLLTLQPEKKFQKVKGFGGAMTDATALNILALSPPTQKLLLRSYFSTNGIEYNIIRVPMASCDFSIRVYTYADTPNDFQLSNFSLPEEDTKLKIPLIHQALKMSSRPISLFASPWTSPTWLKTNGRVNGKGSLKGQPGDIFHQTWANYFVKFLDAYAKYGLRFWAVTAENEPTAGLFTGYPFQCLGFTPEHQRDFISRDLGPALANSSHDVKLLMLDDQRLLLPRWAEVVLSDPEAAKYVHGIAVHWYMDFLAPAKATLGETHRLFPNTMLFASEACVGSKFWEQSVRLGSWDRGMQYSHSIITNLLYHVTGWTDWNLALNPEGGPNWVRNFVDSPIIVDIPKDAFYKQPMFYHLGHFSKFIPEGSQRVALVASESTDLETVALLRPDGSAVVVVLNRSSEDVPLTISDPDLGFLETVSPGYSIHTYLWRRQ
Regarding B1, the binding entry is “binds”.
